In doi:10.1101/2020.11.21.392902:
Like-named read-outs stand apart in the source and are kept apart here. Results are given in words; binding and its absence hold for the method and conditions named. In cells and extracts the contact can be indirect. Some results given as binding are weak or reduced against the parent protein; the word gives no strength. For part of these data: Sequences can lack the tags named with a protein.

The chains behind the UniProt entries cited, without tags or fusion partners. Where a name states a change or a piece, a line headed by the entry shows the natural chain unless it says otherwise. A line that says so, or that is headed by a name, gives the form on record, which may keep a tag or linker. Residues count along the entry.
UniProt P40763: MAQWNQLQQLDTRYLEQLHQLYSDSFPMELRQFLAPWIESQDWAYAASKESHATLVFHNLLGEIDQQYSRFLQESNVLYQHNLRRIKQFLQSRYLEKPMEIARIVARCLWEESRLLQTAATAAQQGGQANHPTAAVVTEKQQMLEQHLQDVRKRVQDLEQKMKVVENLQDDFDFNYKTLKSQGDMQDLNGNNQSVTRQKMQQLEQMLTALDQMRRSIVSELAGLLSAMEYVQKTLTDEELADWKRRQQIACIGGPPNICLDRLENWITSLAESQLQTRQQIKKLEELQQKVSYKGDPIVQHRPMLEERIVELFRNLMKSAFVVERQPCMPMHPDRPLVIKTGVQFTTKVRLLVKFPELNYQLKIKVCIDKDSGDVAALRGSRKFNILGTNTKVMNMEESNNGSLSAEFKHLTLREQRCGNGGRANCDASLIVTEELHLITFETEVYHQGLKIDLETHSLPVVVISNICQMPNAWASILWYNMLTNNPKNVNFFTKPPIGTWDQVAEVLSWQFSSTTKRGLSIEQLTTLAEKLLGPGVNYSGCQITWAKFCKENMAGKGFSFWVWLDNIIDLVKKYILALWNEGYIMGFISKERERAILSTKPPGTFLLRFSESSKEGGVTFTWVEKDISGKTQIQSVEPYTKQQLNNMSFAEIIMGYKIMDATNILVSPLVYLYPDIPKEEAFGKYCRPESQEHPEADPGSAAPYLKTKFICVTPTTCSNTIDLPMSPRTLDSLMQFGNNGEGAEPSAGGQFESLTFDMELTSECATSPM
Myc-tagged STAT3 C-terminal deletion mutant lacking the residues downstream of amino acid 280: residues 1-280 of P40763
UniProt Q8VIM5: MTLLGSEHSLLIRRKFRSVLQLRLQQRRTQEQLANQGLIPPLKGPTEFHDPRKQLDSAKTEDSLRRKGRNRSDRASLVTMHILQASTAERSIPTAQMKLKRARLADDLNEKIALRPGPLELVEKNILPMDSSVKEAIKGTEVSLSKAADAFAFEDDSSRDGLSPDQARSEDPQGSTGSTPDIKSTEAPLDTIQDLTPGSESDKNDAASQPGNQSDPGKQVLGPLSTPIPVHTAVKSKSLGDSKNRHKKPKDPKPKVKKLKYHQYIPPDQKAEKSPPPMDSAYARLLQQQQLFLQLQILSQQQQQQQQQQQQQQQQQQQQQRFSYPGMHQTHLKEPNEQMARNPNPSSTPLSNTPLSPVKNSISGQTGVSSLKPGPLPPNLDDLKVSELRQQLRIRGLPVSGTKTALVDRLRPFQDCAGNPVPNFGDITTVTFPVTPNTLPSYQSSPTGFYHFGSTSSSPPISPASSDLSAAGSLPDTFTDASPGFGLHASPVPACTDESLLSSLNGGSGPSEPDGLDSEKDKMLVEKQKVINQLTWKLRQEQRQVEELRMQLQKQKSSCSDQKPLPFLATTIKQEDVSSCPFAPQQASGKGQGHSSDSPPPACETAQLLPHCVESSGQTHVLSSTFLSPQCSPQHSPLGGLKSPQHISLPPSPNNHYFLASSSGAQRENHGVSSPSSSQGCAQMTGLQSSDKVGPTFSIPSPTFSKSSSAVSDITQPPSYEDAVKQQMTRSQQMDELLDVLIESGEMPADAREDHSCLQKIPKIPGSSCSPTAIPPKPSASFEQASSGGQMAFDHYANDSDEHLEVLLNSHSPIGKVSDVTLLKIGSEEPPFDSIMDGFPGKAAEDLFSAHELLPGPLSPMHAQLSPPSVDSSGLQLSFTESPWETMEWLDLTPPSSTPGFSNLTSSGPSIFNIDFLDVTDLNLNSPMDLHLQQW
Flag-tagged Myocardin deletion mutant lacking N-terminal residues up to amino acid 194: residues 195-935 of Q8VIM5
Flag-tagged Myocardin deletion mutant lacking the first 268 amino acids: residues 269-935 of Q8VIM5

Tests used:
Experiment in all cases: co-IP
[1] = molecular target: Myc-tagged STAT3 C-terminal deletion mutant lacking the residues downstream of amino acid 280 (UniProt P40763)
Myc-Myocardin [2] = molecular target: Myc-Myocardin (UniProt Q8VIM5)
[3] = molecular target: Flag-tagged Myocardin deletion mutant lacking the first 268 amino acids (UniProt Q8VIM5)
[4] = molecular target: Flag-Myocardin (full-length Myocardin with Flag tag, Flag-pCDNA3.1-Myocardin) (UniProt Q8VIM5)
[5] = molecular target: Flag-tagged Myocardin deletion mutant lacking N-terminal residues up to amino acid 194 (UniProt Q8VIM5)
Myc-Myocardin [6] = molecular target: Myc-Myocardin (UniProt Q8VIM5); remark: listed apart in the source

Flag-Myocardin (full-length Myocardin with Flag tag, Flag-pCDNA3.1-Myocardin) (from UniProt Q8VIM5 1-935)
binding [1]: binds

STAT3 as over-expressed in the experiments of Fig. 6 (from UniProt P40763 1-770)
binding (Myc-Myocardin [2]): binds

Myc-STAT3 (full-length STAT3 with Myc tag, Myc-pCDNA3.1-STAT3) (from UniProt P40763 1-770)
binding [3]: no binding | binding [4]: binds | binding [5]: binds

B1: HA-SRF (protein, UniProt P11831 1-508)
chain: MLPTQAGAAAALGRGSALGGSLNRTPTGRPGGGGGTRGANGGRVPGNGAGLGPGRLEREAAAAAATTPAPTAGALYSGSEGDSESGEEEELGAERRGLKRSLSEMEIGMVVGGPEASAAATGGYGPVSGAVSGAKPGKKTRGRVKIKMEFIDNKLRRYTTFSKRKTGIMKKAYELSTLTGTQVLLLVASETGHVYTFATRKLQPMITSETGKALIQTCLNSPDSPPRSDPTTDQRMSATGFEETDLTYQVSESDSSGETKDTLKPAFTVTNLPGTTSTIQTAPSTSTTMQVSSGPSFPITNYLAPVSASVSPSAVSSANGTVLKSTGSGPVSSGGLMQLPTSFTLMPGGAVAQQVPVQAIQVHQAPQQASPSRDSSTDLTQTSSSGTVTLPATIMTSSVPTTVGGHMMYPSPHAVMYAPTSGLGDGSLTVLNAFSQAPSTMQVSHSQVQEPGGVPQVFLTASSGTVQIPVSAVQLHQMAVIGQQAGSSSNLTELQVVNLDTAHSTKSE
binding (Myc-Myocardin [6]): binds
